Results taken from patent publication US10495642B2, “Inhibitors of proteins specific for the secretome of a chondrocyte for use in the treatment of breast cancer metastasis” (ALBERT-LUDWIGS-UNIVERSITÄT FREIBURG, priority 2013, dated 2019).
“Also recorded” adds a separate entry of the source. At least one compound was matched to its structure with a doubt left.

System: MCF7A
Experiment: MTT proliferation of MCF7A induced by chondrocyte conditioned medium (AC CM)
Assay type: cell-based, human

O=c1cc(N2CCOCC2)oc2c(-c3ccccc3)cccc12 [LY294002]
AC CM induced proliferation in MCF7A: can be inhibited; also recorded: Inhibition
